Experimental data taken from patent US9101616B2, “Aryl substituted carboxamide derivatives as calcium or sodium channel blockers” (RaQualia Pharma Inc., priority 2009, dated 2015).
Some entries share one result that the patent states for a list of compounds.

system: human NaV1.3 or human NaV1.7 channels; experiment: NaV1.3 FRET or NaV1.7 FRET Assays (result not assigned to one channel); assay type: cell-based; conditions: which one not given

IC50, ≤ 1000 nM:
C[C@H](NC(=O)c1ccc(C(C)(C)C)cc1)c1ccc(OCC(F)(F)F)cn1 [Example 427, (S)-4-(tert-butyl)-N-(1-(5-(2,2,2-trifluoroethoxy)pyridin-2-yl)ethyl)benzamide]
C[C@@H](NC(=O)c1ccc(OC(F)(F)F)cc1)c1cnc(OCC(F)(F)F)cn1 [Example 431, (R)-N-(1-(5-(2,2,2-trifluoroethoxy)pyrazin-2-yl)ethyl)-4-(trifluoromethoxy)benzamide]
C[C@@H](NC(=O)c1ccc(OCC(F)(F)F)cc1)c1cnc(OCC(F)(F)F)cn1 [Example 432, (R)-4-(2,2,2-trifluoroethoxy)-N-(1-(5-(2,2,2-trifluoroethoxy)pyrazin-2-yl)ethyl)benzamide]
CC(C)(C)c1ccc(C(=O)NCc2ccc(C(F)(F)F)cn2)cc1 [Example 434, 4-(tert-butyl)-N-((5-(trifluoromethyl)pyridin-2-yl)methyl)benzamide]
CC(C)(C)c1ccc(C(=O)NCc2ccc(N3CCCCC3)nc2)cc1 [Example 439, 4-(tert-butyl)-N-((6-(piperidin-1-yl)pyridin-3-yl)methyl)benzamide]
O=C(NCc1ccc(N2CCCCC2)nc1)c1cccc(OC(F)(F)F)c1 [Example 440, N-((6-(piperidin-1-yl)pyridin-3-yl)methyl)-3-(trifluoromethoxy)benzamide]
O=C(NCc1ccc(N2CCCCC2)nc1)c1ccc(OCC(F)(F)F)cc1 [Example 441, N-((6-(piperidin-1-yl)pyridin-3-yl)methyl)-4-(2,2,2-trifluoroethoxy)benzamide]
CC(C)(C)c1ccc(C(=O)NCc2ccc(N3CCCC3)nc2)cc1 [Example 442, 4-(tert-butyl)-N-((6-(pyrrolidin-1-yl)pyridin-3-yl)methyl)benzamide]
O=C(NCc1ccc(N2CCCC2)nc1)c1cccc(OC(F)(F)F)c1 [Example 443, N-((6-(pyrrolidin-1-yl)pyridin-3-yl)methyl)-3-(trifluoromethoxy)benzamide]
O=C(NCc1ccc(N2CCCC2)nc1)c1ccc(OCC(F)(F)F)cc1 [Example 444, N-((6-(pyrrolidin-1-yl)pyridin-3-yl)methyl)-4-(2,2,2-trifluoroethoxy)benzamide]
CC(C)(C)c1ccc(C(=O)NCc2cccc(N3CCCC3)n2)cc1 [Example 447, 4-(tert-butyl)-N-((6-(pyrrolidin-1-yl)pyridin-2-yl)methyl)benzamide]
O=C(NCc1cccc(N2CCCC2)n1)c1cccc(OC(F)(F)F)c1 [Example 448, N-((6-(pyrrolidin-1-yl)pyridin-2-yl)methyl)-3-(trifluoromethoxy)benzamide]
O=C(NCc1cccc(N2CCCC2)n1)c1ccc(OCC(F)(F)F)cc1 [Example 449, N-((6-(pyrrolidin-1-yl)pyridin-2-yl)methyl)-4-(2,2,2-trifluoroethoxy)benzamide]
Cc1ccc(OCC(F)(F)F)c([C@@H](C)NC(=O)c2cccc(OC(F)(F)F)c2)n1 [Example 454, (R)-N-(1-(6-methyl-3-(2,2,2-trifluoroethoxy)pyridin-2-yl)ethyl)-3-(trifluoromethoxy)benzamide]
Cc1ccc(OCC(F)(F)F)c([C@@H](C)NC(=O)c2ccc(OCC(F)(F)F)cc2)n1 [Example 455, (R)-N-(1-(6-methyl-3-(2,2,2-trifluoroethoxy)pyridin-2-yl)ethyl)-4-(2,2,2-trifluoroethoxy)benzamide]
C[C@H](NC(=O)COc1cccc(Cl)c1)c1ccc(OCC(F)(F)F)cn1 [Example 456, (S)-2-(3-chlorophenoxy)-N-(1-(5-(2,2,2-trifluoroethoxy)pyridin-2-yl)ethyl)acetamide]
C[C@@H](NC(=O)COc1cccc(Cl)c1)c1cnc(OCC(F)(F)F)cn1 [Example 458, (R)-2-(3-chlorophenoxy)-N-(1-(5-(2,2,2-trifluoroethoxy)pyrazin-2-yl)ethyl)acetamide]
